According to patent US9580487B2 (Zealand Pharma A/S, priority 2005, dated 2017):

Test: general procedure: Fmoc solid-phase peptide synthesis; TentaGel S RAM, TentaGel S RAM-Lys(Boc)Fmoc, TentaGel S PHB, TentaGel S PHB Lys(Boc)Fmoc, 0.22-0.31 mmol/g; preformed Fmoc-protected HOBt esters (3 eq.)
[1] = whole synthesis, RP-HPLC, scale of the general procedure 1 g resin, 0.22-0.31 mmol/g, trifluoroacetate salt
[2] = whole synthesis, RP-HPLC 220 nm, scale of the general procedure 1 g resin, 0.22-0.31 mmol/g, trifluoroacetate salt

| Substance | final purity (method not given) [1] [%] | other results |
| --- | --- | --- |
| H-HGDGSFIDELATILDNLAARDFIAWLIQTKKKKKKK-NH2 | 95 |  |
| H-HGDGSFSDELATILDALAARDFIAWLIATKITD-NH2 | 95 |  |
| H-HGDGSFSDELATILDNLAARDFIAWLIATKITD-NH2 | 92 |  |
| H-HGDGSFSDELATILDNLAARDFIAWLIQTK-NH2 (C-terminal amide) | 91 |  |
| H-HGDGSFSDELATILDNLAARDFIAWLIQTKITD-NH2 (C-terminal amide) | 95 |  |
| H-HGDGSFSDELATILDNLAARDFIAWLIQTKITDKKKKKK-NH2 (C-terminal amide) | 92 |  |
| H-HGDGSFSDELKTILDNLAARDFIAWLIQTK-NH2 (C-terminal amide) | 94 |  |
| H-HGDGSFSDELKTILDNLAARDFIAWLIQTKKKKKKK-NH2 (C-terminal amide) | 93 |  |
| H-HGDGSFSDELNTILDNLAARDFIAWLIQTKITDKKKKKK-NH2 (C-terminal amide) | 93 |  |
| H-HGDGSFSDELSTILDNLAARDFIAWLIQTK-NH2 (C-terminal amide) | 94 |  |
| H-HGDGSFSDELSTILDNLAARDFIAWLIQTKKKKKKK-NH2 (C-terminal amide) | 92 |  |
| H-HGDGSFSDEMNTILDNLAARDFINWLIQTKITD-NH2 | 95 | final HPLC purity [2]: 96% |
| H-HGDGSFSSELATILDNLAARDFIAWLIQTK-NH2 (C-terminal amide) | 92 |  |
| H-HGDGSFSSELATILDNLAARDFIAWLIQTKKKKKKK-NH2 (C-terminal amide) | 92 |  |
| H-HGDGSFSSELSTILDNLAARDFIAWLIQTK-NH2 (C-terminal amide) | 97 |  |
| H-HGDGSFSSELSTILDNLAARDFIAWLIQTKKKKKKK-NH2 (C-terminal amide) | 95 |  |
| H-HGDGSFTDELATILDNLAARDFIAWLIQTK-NH2 (C-terminal amide) | 90 |  |
| H-HGDGSFTDELKTILDNLAARDFIAWLIQTK-NH2 (C-terminal amide) | 92 |  |
| H-HGDGSFTDELKTILDNLAARDFIAWLIQTKKKKKKK-NH2 (C-terminal amide) | 94 |  |
| H-HGDGSFTDELSTILDNLAARDFIAWLIQTK-NH2 (C-terminal amide) | 94 |  |
| H-HGDGSFTDELSTILDNLAARDFIAWLIQTKKKKKKK-NH2 (C-terminal amide) | 93 |  |
| H-HGDGSFTSELATILDNLAARDFIAWLIQTK-NH2 (C-terminal amide) | 94 | final HPLC purity [2]: 94% |
| H-HGDGSFTSELATILDNLAARDFIAWLIQTKKKKKKK-NH2 (C-terminal amide) | 94 | final HPLC purity [2]: 94% |
| H-HGDGSFTSELKTILDNLAARDFIAWLIQTK-NH2 (C-terminal amide) | 97 |  |
| H-HGDGSFTSELKTILDNLAARDFIAWLIQTKKKKKKK-NH2 (C-terminal amide) | 95 |  |

| Substance | final purity (method not given) [1] [%] | other results |
| --- | --- | --- |
| H-HGDGSFTSELSTILDNLAARDFIAWLIQTK-NH2 (C-terminal amide) | 94 |  |
| H-HGDGSFTSELSTILDNLAARDFIAWLIQTKKKKKKK-NH2 (C-terminal amide) | 94 |  |
| H-HGDGSPSDELATILDALAARDFIAWLIATKITD-NH2 | 94 |  |
| H-HGEGSFSDELATILDALAARDFIAWLIATKITD-NH2 | 95 |  |
| H-HGEGSFSDELATILDNLAARDFIAWLIQTKITD-NH2 | 91 |  |
| H-HGEGSFSDELKTILDALAARDFIAWLIATKITD-NH2 (C-terminal amide) | 90 |  |
| H-HGEGSFSDELKTILDALAARDFIAWLIATKITDKKKKKK-NH2 (C-terminal amide) | 93 |  |
| H-HGEGSFSDELSTILDALAARDFIAWLIATKITD-NH2 | 96 |  |
| H-HGEGSFSDELSTILDALAARDFIAWLIATKITDKKKKKK-NH2 | 90 |  |
| H-HGEGSFSSELATILDALAARDFIAWLIATKITD-NH2 (C-terminal amide) | 90 | final HPLC purity [2]: 90% |
| H-HGEGSFSSELATILDALAARDFIAWLIATKITDKKKKKK-NH2 (C-terminal amide) | 97 | final HPLC purity [2]: 97% |
| H-HGEGSFSSELSTILDALAARDFIAWLIATKITD-NH2 (C-terminal amide) | 96 | final HPLC purity [2]: 96% |
| H-HGEGSFSSELSTILDALAARDFIAWLIATKITDKKKKKK-NH2 (C-terminal amide) | 90 | final HPLC purity (purification step, RP-HPLC, acetate salt): 97%; final HPLC purity [2]: 90% |
| H-HGEGTFSDELATILDALAARDFIAWLIATKITDKKKKKK-NH2 (C-terminal amide) | 96 |  |
| H-HGEGTFSDELATILDALAARIFIAWLIATKKKKKKK-NH2 | 91 |  |
| H-HGEGTFSDELKTILDALAARDFIAWLIATKITD-NH2 | 92 |  |
| H-HGEGTFSDELKTILDALAARDFIAWLIATKITDKKKKKK-NH2 (C-terminal amide) | 95 |  |
| H-HGEGTFSDELSTILDALAARDFIAWLIATKITD-NH2 (C-terminal amide) | 96 |  |
| H-HGEGTFSDELSTILDALAARDFIAWLIATKITDKKKKKK-NH2 (C-terminal amide) | 93 |  |
| H-HGEGTFSSELATILDALAARDFIAWLIATKITD-NH2 (C-terminal amide) | 94 | final HPLC purity [2]: 94% |
| H-HGEGTFSSELATILDALAARDFIAWLIATKITDKKKKKK-NH2 (C-terminal amide) | 90 | final HPLC purity (purification step, RP-HPLC, chloride salt): 93%; final HPLC purity [2]: 90% |
| H-HGEGTFSSELKTILDALAARDFIAWLIATKITD-NH2 | 99 |  |
| H-HGEGTFSSELKTILDALAARDFIAWLIATKITDKKKKKK-NH2 (C-terminal amide) | 95 |  |
| H-HGEGTFSSELSTILDALAARDFIAWLIATKITD-NH2 (C-terminal amide) | 97 |  |
| H-HGEGTFSSELSTILDALAARDFIAWLIATKITDKKKKKK-NH2 (C-terminal amide) | 90 |  |
